Results published in article PMC3834835, “Crystal structure of RuvC resolvase in complex with Holliday junction substrate” (Nucleic Acids Research, 2013).
Numbering of substitutions follows the chain as printed. For at least one entry, the source does not settle the construct or the ends of the probe. For some of these results: Negatives hold for the conditions tested. Protein sequences can lack the tags named with them. For some of these results: Weaker means in comparison with the reference protein, sequence or condition of that experiment. For some of these results: At least one verdict rests on a figure or table, not on a statement of the authors.

Columns and labels:
[1] = target: T1, Tt-RuvC E70Q (Thermus thermophilus) (UniProt Q5SJC4); test: co-crystallization; settings: structure not stated for this junction; recombinant protein; folded or branched DNA
T1 sequence (looked up, limits assumed): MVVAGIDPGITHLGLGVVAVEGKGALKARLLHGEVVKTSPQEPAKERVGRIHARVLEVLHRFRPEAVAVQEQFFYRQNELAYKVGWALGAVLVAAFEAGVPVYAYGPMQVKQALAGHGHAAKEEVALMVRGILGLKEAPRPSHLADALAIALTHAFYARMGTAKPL

[2] = target: T2, Tt-RuvC E70Q T11C (Thermus thermophilus) (UniProt Q5SJC4); test: site-specific thiol cross-linking; settings: 5 mM Mg2+, 100 mM KCl, some product; thiol tether on phosphate after nt 25 of strands 2 and 4; Cross-linking: 100 mM NaCl, 10 mM HEPES pH 7.0, 0.5 mM DTT, 15% glycerol, 5 mM MgCl2 (+100 mM KCl for backbone thiols), protein:DNA 1:1, 37 C 2.5 h then 25 C overnight; recombinant protein; protein details: N-terminal His-tag; folded or branched DNA
T2 sequence (looked up, limits assumed): T1 sequence (looked up, limits assumed) with T11C

[3] = target: T3, Tt-RuvC E70Q R140C (Thermus thermophilus) (UniProt Q5SJC4); test: site-specific thiol cross-linking; settings: 5 mM Mg2+, 100 mM KCl, no cross-link (contact position, not loss of affinity), Cross-linking: 100 mM NaCl, 10 mM HEPES pH 7.0, 0.5 mM DTT, 15% glycerol, 5 mM MgCl2 (+100 mM KCl for backbone thiols), protein:DNA 1:1, 37 C 2.5 h then 25 C overnight, recombinant protein, protein details: N-terminal His-tag, folded or branched DNA
T3 sequence (looked up, limits assumed): T1 sequence (looked up, limits assumed) with R140C

## CAATCGGCATTCACCTTTGGTGATTCGGCAGAT / ATCTGCCGATTCTGGTTTCCAGATTGCCGATTG [HJ J221m/J222m]
[1]
  binding result: binds

## GACGGCCTCGCAATCAGCTATGACCGAGCACGCGAGATGT / ACATCTCGCGTGCTCGGTCATTCGTCAGATGCGGAGTGAA / TTCACTCCGCATCTGACGATTCTGGCTGTGGCGTGTTTCT / AGAAACACGCCACAGCCAGAAAGCTGATTGCGAGGCCGTC [HJ-29bb]
[2]
  binding result: binds more weakly
[3]; thiol tether on phosphate after nt 25 of strands 2 and 4
  binding result: no binding

## GACGGCCTCGCAATCGACTATGACCGAGCACGCGAGATGT / ACATCTCGCGTGCTCGGTCATTCTGCAGATGCGGAGTGAA / TTCACTCCGCATCTGCAGATTCTGGCTGTGGCGTGTTTCT / AGAAACACGCCACAGCCAGAAAGTCGATTGCGAGGCCGTC [HJ-28bb]
[3]; thiol tether on phosphate after nt 24 of strands 2 and 4
  binding result: no binding
